Values of other authors, collected in patent publication US11173135B2 (Thiogenesis Therapeutics, Inc., priority 2016, dated 2021).
At least one compound was matched to its structure with a doubt left.

Conditions: cited from earlier work

CC(C)(COP(=O)(O)O)[C@@H](O)C(=O)NCCC(=O)NCCS [4-phosphopantetheine]
crossing of cell membranes: crosses cell membranes efficiently
